Test: general procedure: Fmoc solid-phase peptide synthesis; NovaSyn TGR R resin (Novabiochem); Oxyma/DIC
Conditions: whole synthesis; for final HPLC purity: 220 nm, scale of the general procedure 15 μmol
[1] = scale 15 μmol, side-chain lactam ring

Substance	final HPLC purity [%]	isolated mass (scale 15 μmol) [mg]	isolated yield (scale 15 μmol) [%]	isolated mass (scale 7.5 μmol) [mg]	isolated yield (scale 7.5 μmol) [%]	further results
H-GGC*RFGTC*TVQKLAHQIYQFT-OEG(12)-DNVAPRSKISPQGY-NH2	≥95	1.8	3	–	–	–
H-GGC*RFGTC*TVQKLAHQIYQFT-OEG(13)-DNVAPRSKISPQGY-NH2	≥95	–	–	6.0	20	–
H-GGC*RFGTC*TVQKLAHQIYQFT-OEG(16)-NVAPRSKISPQGY-NH2	≥95	–	–	5.4	18	–
H-GGC*RFGTC*TVQKLAHQIYQFT-OEG(19)-VAPRSKISPQGY-NH2	≥95	–	–	6.9	23	–
H-GGC*RFGTC*TVQKLAHQIYQFTD-OEG(13)-NVAPRSKISPQGY-NH2	≥95	–	–	2.4	8	–
H-GGC*RFGTC*TVQKLAHQIYQFTD-OEG(16)-VAPRSKISPQGY-NH2	≥95	–	–	3.6	12	–
H-GGC*RFGTC*TVQKLAHQIYQFTD-OEG(19)-APRSKISPQGY-NH2	≥95	–	–	0.7	2	–
H-GGC*RFGTC*TVQKLAHQIYQFTDKDKDNVAPD+SKIK+PQGY-NH2	≥95	3.9	6	–	–	–
H-GGC*RFGTC*TVQKLAHQIYQFTDKDKDNVAPE+SKIK+PQGY-NH2	≥95	6.0	9	–	–	–
H-GGC*RFGTC*TVQKLAHQIYQFTDKDKDNVAPK+SKID+PQGY-NH2	≥95	5.1	8	–	–	–
H-GGC*RFGTC*TVQKLAHQIYQFTDKDKDNVAPK+SKIE+PQGY-NH2	≥95	4.5	7	–	–	–
H-K(ODD)-G-Dpr+-RFGTE+TVQKLAHQIYQFTDKDKDNVAPRSKISPQGY-NH2	–	–	–	–	–	final HPLC purity (side-chain lactam ring): ≥95%; isolated mass [1]: 1.4 mg; isolated yield [1]: 1.6%
H-K(ODD)-G-Dpr+^1-RFGTE+^1TVQKLAHQIYQFT-OEG(13)-DNVAPK+^2SKID+^2PQGY-NH2	≥94	–	–	–	–	isolated mass (scale 2×15 μmol): 2.1 mg; isolated yield (scale 2×15 μmol): 1.2%
H-K(ODD)-G-Dpr+^1-RFGTE+^1TVQKLAHQIYQFTDKDKDNVAPK+^2SKID+^2PQGY-	≥95	–	–	–	–	isolated mass (scale 2×15 μmol): 2.1 mg; isolated yield (scale 2×15 μmol): 1.2%
H-K(ODD)-GC*RFGTC*TVQKLAHQIYQFT-OEG(13)-DNVAPK+SKID+PQGY-NH2	≥95	1.7	3	–	–	–
H-K(ODD)-GC*RFGTC*TVQKLAHQIYQFTDKDKDNVAPK+SKID+PQGY-NH2	≥95	1.0	1	–	–	–
H-K(ODD)-GC*RFGTC*TVQKLAHQIYQFTDKDKDNVAPRSKISPQGY-NH2	≥95	3.8	5	–	–	–

Source: US20220387608A1 (Bayer Aktiengesellschaft, priority 2019, published 2022)
